Values from PubChem BioAssay AID602203 (INSERM, 2012).
Screen: 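Confirming genes that raise or lower cisplatin-induced death in A549 cells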 (follow-up of hits). Cells: human A549 lung cancer cells. Reagent: siRNA pair against human genes. Challenge: cisplatin at a dose killing half of control-siRNA cells, given 48 h after transfection. Measurement: 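Two siRNAs per gene scored +1 protective, -1 sensitizing, 0 if toxic by LDH or growth-reducing by WST-1; cisplatin given 48 h later at 50% control kill; scores summed, mean death shift versus control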. Direction: summed siRNA score for cisplatin death: higher = more siRNAs reduced cisplatin-induced cell death; change in cisplatin death versus control: higher = fewer cells died than in control. Active means: In these data the active calls have summed siRNA score for cisplatin death at about -3 or lower, or at about 3 or higher.
Here is a random part of 999 reagents. 85 of them (8.5%) count as active. 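Unclear how single-siRNA scores of -1, 0 or +1 give the printed -4 to 4 range; calls lie near -3 or 3 and beyond.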 A number with no mark means an inactive call. Reagent sequences are not shown. The record does not give: the amount of reagent, the time to read-out, the dose of the treatment.

VN1R10P (vomeronasal 1 receptor 10, pseudogene) | summed siRNA score for cisplatin death = 0
PNKP (polynucleotide kinase 3'-phosphatase) | summed siRNA score for cisplatin death = 1
SPON2 (spondin 2) | summed siRNA score for cisplatin death = 0
LOC139516 | summed siRNA score for cisplatin death = 0
ITGA7 (integrin subunit alpha 7) | summed siRNA score for cisplatin death = -1
FBXW11 (F-box and WD repeat domain containing 11) | summed siRNA score for cisplatin death = 1
RPL3L (ribosomal protein L3 like) | summed siRNA score for cisplatin death = 1
CSF3R (colony stimulating factor 3 receptor) | summed siRNA score for cisplatin death = -1
NIT2 (nitrilase family member 2) | summed siRNA score for cisplatin death = 0
LETM1 | summed siRNA score for cisplatin death = -2
MUL1 (mitochondrial E3 ubiquitin protein ligase 1) | summed siRNA score for cisplatin death = 1
GABRB2 (gamma-aminobutyric acid type A receptor subunit beta2) | summed siRNA score for cisplatin death = 1
HTR3C (5-hydroxytryptamine receptor 3C) | summed siRNA score for cisplatin death = -1
SSR1 (signal sequence receptor subunit 1) | summed siRNA score for cisplatin death = 0
STEAP2 (STEAP2 metalloreductase) | summed siRNA score for cisplatin death = 0
EXOC7 (exocyst complex component 7) | summed siRNA score for cisplatin death = 0
PRSS8 (serine protease 8) | summed siRNA score for cisplatin death = -1
RAC2 (Rac family small GTPase 2) | summed siRNA score for cisplatin death = -3 (active); change in cisplatin death versus control (percentage points) = -14.9
LSR (lipolysis stimulated lipoprotein receptor) | summed siRNA score for cisplatin death = 0
CDC42 (cell division cycle 42) | summed siRNA score for cisplatin death = 1
KCNB1 (potassium voltage-gated channel subfamily B member 1) | summed siRNA score for cisplatin death = -2
RHOBTB2 (Rho related BTB domain containing 2) | summed siRNA score for cisplatin death = 1
NFX1 (nuclear transcription factor, X-box binding 1) | summed siRNA score for cisplatin death = 0
LOC440050 | summed siRNA score for cisplatin death = 1
MZT2B (mitotic spindle organizing protein 2B) | summed siRNA score for cisplatin death = -2
LRRN2 (leucine rich repeat neuronal 2) | summed siRNA score for cisplatin death = 2
CLCA4 (chloride channel accessory 4) | summed siRNA score for cisplatin death = 0
SOX11 (SRY-box transcription factor 11) | summed siRNA score for cisplatin death = -1
LOC440301 | summed siRNA score for cisplatin death = 0
FFAR2 (free fatty acid receptor 2) | summed siRNA score for cisplatin death = -2
KDELR3 (KDEL endoplasmic reticulum protein retention receptor 3) | summed siRNA score for cisplatin death = -1
OAF (out at first homolog) | summed siRNA score for cisplatin death = 1
GIT1 (GIT ArfGAP 1) | summed siRNA score for cisplatin death = 1

Copied from the listing, 3 entries:
RAC2 (Rac family small GTPase 2) | summed siRNA score for cisplatin death = -3 (active); change in cisplatin death versus control (percentage points) = -14.9
LSR (lipolysis stimulated lipoprotein receptor) | summed siRNA score for cisplatin death = 0
CDC42 (cell division cycle 42) | summed siRNA score for cisplatin death = 1

Continued:
OVCH1 (ovochymase 1) | summed siRNA score for cisplatin death = 3 (active); change in cisplatin death versus control (percentage points) = 16.2
CDK14 (cyclin dependent kinase 14) | summed siRNA score for cisplatin death = -1
LOC440360 | summed siRNA score for cisplatin death = 0
BST1 (bone marrow stromal cell antigen 1) | summed siRNA score for cisplatin death = -2
TCF7L2 (transcription factor 7 like 2) | summed siRNA score for cisplatin death = -1
SPMIP4 (sperm microtubule inner protein 4) | summed siRNA score for cisplatin death = 1
OR51I2 (olfactory receptor family 51 subfamily I member 2) | summed siRNA score for cisplatin death = 0
LOC442031 | summed siRNA score for cisplatin death = 2
LAMTOR3 (late endosomal/lysosomal adaptor, MAPK and MTOR activator 3) | summed siRNA score for cisplatin death = 1
OMA1 (OMA1 zinc metallopeptidase) | summed siRNA score for cisplatin death = 1
KCNE4 | summed siRNA score for cisplatin death = -1
SLC27A1 | summed siRNA score for cisplatin death = -1
CD38 (CD38 molecule) | summed siRNA score for cisplatin death = -1
MYCBP2 (MYC binding protein 2) | summed siRNA score for cisplatin death = 0
GUCA1A (guanylate cyclase activator 1A) | summed siRNA score for cisplatin death = -3 (active); change in cisplatin death versus control (percentage points) = -6.71
SLC7A11 | summed siRNA score for cisplatin death = 0
DBP (D-box binding PAR bZIP transcription factor) | summed siRNA score for cisplatin death = -2
HSD17B11 (hydroxysteroid 17-beta dehydrogenase 11) | summed siRNA score for cisplatin death = -1
RAB40A (RAB40A, member RAS oncogene family) | summed siRNA score for cisplatin death = 3 (active); change in cisplatin death versus control (percentage points) = 6.47
LAMB4 (laminin subunit beta 4) | summed siRNA score for cisplatin death = 1
LOC388205 | summed siRNA score for cisplatin death = 1
MLXIPL (MLX interacting protein like) | summed siRNA score for cisplatin death = 2
RCL1 (RNA terminal phosphate cyclase like 1) | summed siRNA score for cisplatin death = -1
SPEM2 (SPEM family member 2) | summed siRNA score for cisplatin death = -1
CSNK1D (casein kinase 1 delta) | summed siRNA score for cisplatin death = -1
MYH14 (myosin heavy chain 14) | summed siRNA score for cisplatin death = -1
PRAC2 (PRAC2 small nuclear protein) | summed siRNA score for cisplatin death = 1
